Experimental data reported in PubChem BioAssay AID330 (DTP/NCI, 2004).
The list is a part of this screen's results and no random one: it gathers tests that were run many times, whatever their T/C, doses with no T/C, and many T/C values between a quarter and a half above the control. Other doses and runs of a compound stand elsewhere. T/C gives the treated animals as a percentage of the vehicle group. Some doses have a count of surviving animals in place of a T/C: the source files T/C as zero there, which appears to mark a toxic dose or a test without result, not a measured value. Some survivor counts are full or nearly so, which does not show that the dose was tolerated: the source hardly ever lists a survival T/C far under the control, and the zero likely stands for such cases as well. Counts of survivors are from the toxicity check (mostly the fifth day) where no day follows; animals may have died later. Schedule codes are those of the source, taken here to give the interval after Q, in days (D) or hours (H), and the number of doses after X. Some entries were tested several times; the results are listed from low to high. Where survival is the endpoint, the PubChem record calls one and a half times the control and up active, and a quarter to a half above the control has no call in these data; cut-offs in other NCI protocols can differ. Marks such as (2×) stand for listed records that agree.

Tested on: P388 leukemia ip, CD2F1 mice, survival T/C
Assay: NCI In Vivo Anticancer Drug Screen. Data for tumor model P388 Leukemia (intraperitoneal) in CD2F1 (CDF1) mice
Details: T/C endpoint: median survival time, higher T/C = longer survival
[1] = dose: 100.0 mg/kg/injection, schedule: Q01DX005 (ip), vehicle: saline with Tween-80
[2] = dose: 200.0 mg/kg/injection, schedule: Q01DX005 (ip), vehicle: saline with Tween-80
[3] = dose: 100.0 mg/kg/injection, schedule: Q01DX009 (ip), vehicle: saline
[4] = dose: 200.0 mg/kg/injection, schedule: Q01DX009 (ip), vehicle: saline
[5] = dose: 60.0 mg/kg/injection, schedule: Q01DX005 (ip), vehicle: Klucel (hydroxypropylcellulose) (HPC)
[6] = dose: 120.0 mg/kg/injection, schedule: Q01DX005 (ip), vehicle: Klucel (hydroxypropylcellulose) (HPC)
[7] = dose: 240.0 mg/kg/injection, schedule: Q01DX005 (ip), vehicle: Klucel (hydroxypropylcellulose) (HPC)
[8] = dose: 6.25 mg/kg/injection, schedule: Q01DX009 (ip), vehicle: saline with Tween-80
[9] = dose: 12.5 mg/kg/injection, schedule: Q01DX009 (ip), vehicle: saline with Tween-80
[10] = dose: 200.0 mg/kg/injection, schedule: Q04DX003 (ip), vehicle: saline with Tween-80
[11] = dose: 100.0 mg/kg/injection, schedule: Q01DX005 (ip), vehicle: Klucel (hydroxypropylcellulose) (HPC)
[12] = dose: 200.0 mg/kg/injection, schedule: Q01DX005 (ip), vehicle: Klucel (hydroxypropylcellulose) (HPC)
[13] = dose: 50.0 mg/kg/injection, schedule: Q04DX003 (ip), vehicle: saline with Tween-80
[14] = dose: 100.0 mg/kg/injection, schedule: Q01DX009 (ip), vehicle: saline with Tween-80
[15] = dose: 100.0 mg/kg/injection, schedule: Q04DX003 (ip), vehicle: saline with Tween-80
[16] = dose: 400.0 mg/kg/injection, schedule: Q04DX003 (ip), vehicle: saline with Tween-80
[17] = dose: 25.0 mg/kg/injection, schedule: Q01DX009 (ip), vehicle: saline with Tween-80

SMILES: COc1ccc2c(N)c3c4ccccc4cc[n+]3cc2c1OC
- T/C (dose: 12.5 mg/kg/injection, schedule: Q04DX003 (ip), vehicle: water): 128 % of control
- T/C (dose: 25.0 mg/kg/injection, schedule: Q04DX003 (ip), vehicle: water): 130 % of control
- survivor count (dose: 50.0 mg/kg/injection, schedule: Q04DX003 (ip), vehicle: distilled water + Tween-80): 2 of 6
- survivor count (dose: 50.0 mg/kg/injection, schedule: Q04DX003 (ip), vehicle: water): 2 of 6
- survivor count (dose: 100.0 mg/kg/injection, schedule: Q04DX003 (ip), vehicle: distilled water + Tween-80): 0 of 6
- survivor count (dose: 200.0 mg/kg/injection, schedule: Q04DX003 (ip), vehicle: distilled water + Tween-80): 0 of 6
- survivor count (dose: 400.0 mg/kg/injection, schedule: Q04DX003 (ip), vehicle: distilled water + Tween-80): 0 of 6

SMILES: CS(=O)(=O)OCCCCOS(C)(=O)=O
- survivor count (dose: 7.5 mg/kg/injection, schedule: Q01DX009 (ip), vehicle: saline with Tween-80): 10 of 10
- survivor count (dose: 30.0 mg/kg/injection, schedule: Q03HX024 (ip), vehicle: saline with Tween-80): 9 of 10
- survivor count (dose: 60.0 mg/kg/injection, schedule: Q01DX009 (oral), vehicle: saline with Tween-80): 9 of 10
- survivor count (dose: 60.0 mg/kg/injection, schedule: Q04DX003 (ip), vehicle: saline with Tween-80): 9 of 10
- survivor count [1]: 0 of 6 and 1 of 6
- survivor count (dose: 120.0 mg/kg/injection, schedule: Q01DX001 (ip), vehicle: saline with Tween-80): 6 of 10
- survivor count (dose: 120.0 mg/kg/injection, schedule: Q01DX001 (oral), vehicle: saline with Tween-80): 6 of 10
- survivor count (dose: 120.0 mg/kg/injection, schedule: Q01DX009 (oral), vehicle: saline with Tween-80): 1 of 10
- survivor count (dose: 120.0 mg/kg/injection, schedule: Q04DX003 (ip), vehicle: saline with Tween-80): 7 of 10
- survivor count (dose: 120.0 mg/kg/injection, schedule: Q08DX002 (ip), vehicle: saline with Tween-80): 6 of 10
- survivor count [2]: 0 of 6
- survivor count (dose: 240.0 mg/kg/injection, schedule: Q01DX001 (ip), vehicle: saline with Tween-80): 6 of 10
- survivor count (dose: 240.0 mg/kg/injection, schedule: Q01DX001 (oral), vehicle: saline with Tween-80): 0 of 10
- survivor count (dose: 240.0 mg/kg/injection, schedule: Q04DX003 (ip), vehicle: saline with Tween-80): 9 of 10
- survivor count (dose: 480.0 mg/kg/injection, schedule: Q01DX001 (oral), vehicle: saline with Tween-80): 0 of 10

SMILES: NNC(=O)C(NC=O)C(N)=O (stereo not given)
- survivor count [3]: 6 of 6

SMILES: O=c1[nH]c(=O)c2nc(-c3cccnc3)cnc2[nH]1
- T/C [3]: 127 % of control
- survivor count [3]: 6 of 6
- T/C [4]: 138 and 144 % of control

SMILES: N#CC(=O)Nc1ccc(Cl)c(Cl)c1
- survivor count [5]: 0 of 6
- survivor count [6]: 0 of 6
- survivor count [7]: 0 of 6

SMILES: CCOC(=O)C[N+]12CCC34c5cc(OC)c(OC)cc5N5C(=O)CC6OCC=C(C1)C(CC32)C6C54 (stereo not given)
- T/C [8]: 101, 110 (2×), 111, 123 % of control
- T/C [9]: 101, 103, 109, 113, 119 % of control
- survivor count (dose: 200.0 mg/kg/injection, schedule: Q01DX009 (ip), vehicle: saline with Tween-80): 3 of 6

SMILES: O=C(O)C1SCSC1C(=O)O (stereo not given)
- survivor count (dose: 400.0 mg/kg/injection, schedule: Q01DX009 (ip), vehicle: other): 0 of 6

SMILES: C=C1C(=O)OC2/C=C(\C)CC/C=C(/C)CC(OC(=O)/C(=C/CO)CO)C12 (stereo not given)
- T/C (dose: 20.0 mg/kg/injection, schedule: Q01DX009 (ip), vehicle: Klucel (hydroxypropylcellulose) (HPC)): 140 % of control
- survivor count (dose: 80.0 mg/kg/injection, schedule: Q01DX009 (ip), vehicle: Klucel (hydroxypropylcellulose) (HPC)): 0 of 6

SMILES: COC1OC(COC(=O)c2ccccc2)C(=O)C(OC(=O)c2ccccc2)C1N(O)c1ccccc1 (stereo not given)
- survivor count [5]: 6 of 6
- survivor count [6]: 6 of 6
- survivor count [7]: 6 of 6

SMILES: CS(C)=NC(=Nc1ccccc1)c1ccccc1
- survivor count [10]: 0 of 6

SMILES: Cc1cc2c(-c3ccccc3)c3cc(C)c(N)cc3nc2cc1N
- survivor count (dose: 50.0 mg/kg/injection, schedule: Q01DX005 (ip), vehicle: Klucel (hydroxypropylcellulose) (HPC)): 2 of 6
- survivor count [11]: 0 of 6
- survivor count [12]: 0 of 6

SMILES: CC1CN=C(c2ccc(NC(=O)Nc3ccc(C(=O)Nc4ccc(C5=NCC(C)N5)cc4)cc3)cc2)N1 (stereo not given)
- T/C [8]: 140 % of control
- T/C [13]: 125 % of control
- survivor count [14]: 4 of 6
- survivor count (dose: 200.0 mg/kg/injection, schedule: Q04DX003 (ip), vehicle: saline): 2 of 6
- survivor count (dose: 400.0 mg/kg/injection, schedule: Q04DX003 (ip), vehicle: saline): 1 of 6

SMILES: CC1(C)N=C(N)N=C(N)N1c1cccc(CNc2ccc(S(N)(=O)=O)cc2)c1
- survivor count [5]: 0 of 6
- survivor count [6]: 0 of 6
- survivor count [7]: 0 of 6

SMILES: CCC1CCCCN1C(=S)N/N=C(\C)c1ccccn1 (stereo not given)
- T/C [13]: 125 % of control
- survivor count [15]: 2 of 6 and 3 of 6
- survivor count [10]: 1 of 6
- survivor count [16]: 0 of 6

SMILES: Clc1ncnc2c1ncn2C1CCCO1 (stereo not given)
- survivor count [4]: 4 of 6

SMILES: FS(F)(F)(F)(F)c1cccc(NC(=S)SCc2ccc(Cl)cc2)c1
- survivor count (dose: 50.0 mg/kg/injection, schedule: Q01DX009 (ip), vehicle: saline): 3 of 6

SMILES: N#C/C(=C\c1ccccc1)CN1CCCCC1
- survivor count (dose: 400.0 mg/kg/injection, schedule: Q01DX001 (ip), vehicle: saline with Tween-80): 0 of 6

SMILES: O=c1[nH]c2ccccc2cc1CBr
- survivor count (dose: 200.0 mg/kg/injection, schedule: Q04DX002 (ip), vehicle: Klucel (hydroxypropylcellulose) (HPC)): 2 of 6 and 5 of 6

SMILES: NNc1ccc(-n2ncc(C(N)=O)c2N)nn1
- survivor count (dose: 200.0 mg/kg/injection, schedule: Q01DX005 (ip), vehicle: other): 1 of 5

SMILES: COC(=O)c1nc(-c2ccc3c(n2)C(=O)C(N)=C(OC)C3=O)c(N)c(-c2ccc(OC)c(OC)c2O)c1C
- T/C [9]: 137 % of control
- T/C [17]: 129 % of control
- survivor count [17]: 6 of 6
- survivor count (dose: 50.0 mg/kg/injection, schedule: Q01DX009 (ip), vehicle: saline with Tween-80): 6 of 6
- survivor count [14]: 6 of 6
- T/C [15]: 140 % of control
- survivor count [15]: 6 of 6
- survivor count (dose: 150.0 mg/kg/injection, schedule: Q04DX003 (ip), vehicle: saline with Tween-80): 6 of 6
- survivor count [10]: 6 of 6
- survivor count [16]: 1 of 6

SMILES: CCC1CN2CCc3cc(OC)c(OC)cc3C2C/C1=C/C(=O)O (stereo not given)
- survivor count (dose: 200.0 mg/kg/injection, schedule: Q01DX009 (ip), vehicle: suspension in saline): 0 of 6

SMILES: Cc1ccc(/C=N/NC(=O)C(=O)Nc2ccc(Cl)c([N+](=O)[O-])c2)cc1
- survivor count (dose: 25.0 mg/kg/injection, schedule: Q01DX005 (ip), vehicle: saline with Tween-80): 6 of 6
- survivor count (dose: 50.0 mg/kg/injection, schedule: Q01DX005 (ip), vehicle: saline with Tween-80): 6 of 6
- survivor count [1]: 6 of 6
- survivor count [2]: 6 of 6

SMILES: CCOC(=O)CCSc1ccccc1
- survivor count [15]: 3 of 6
- survivor count [10]: 0 of 6
- survivor count [16]: 0 of 6

SMILES: Cc1nn(-c2ccccc2)nc1CBr
- survivor count [2]: 3 of 6

SMILES: CCN(CC)CCN(C(=O)C1c2ccccc2Oc2ccccc21)C1CCCCC1
- survivor count [11]: 0 of 5
- survivor count [12]: 0 of 5
